# Data as given in PubChem BioAssay (Tox21).
# Amino acid sequences for entries named in this document (tags omitted). A change or cut given only in a name is not applied to a line headed by its entry.
# UniProt P19793: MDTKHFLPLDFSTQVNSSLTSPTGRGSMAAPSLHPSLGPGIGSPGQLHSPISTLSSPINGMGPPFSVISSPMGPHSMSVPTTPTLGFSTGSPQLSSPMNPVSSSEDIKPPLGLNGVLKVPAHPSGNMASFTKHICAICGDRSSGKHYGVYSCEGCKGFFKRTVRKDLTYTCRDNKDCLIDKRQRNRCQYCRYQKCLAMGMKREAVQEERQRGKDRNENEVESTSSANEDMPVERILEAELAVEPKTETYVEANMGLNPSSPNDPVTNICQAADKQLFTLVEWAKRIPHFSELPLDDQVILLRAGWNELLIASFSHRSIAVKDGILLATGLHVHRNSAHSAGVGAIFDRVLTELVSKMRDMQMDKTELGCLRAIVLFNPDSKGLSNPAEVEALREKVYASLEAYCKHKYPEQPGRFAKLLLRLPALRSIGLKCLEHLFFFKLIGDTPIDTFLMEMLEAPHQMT
# Several values for one entry are separate records, joined by “and”; a condition that tells them apart may be missing. Equal entries are not always repeated. Inconclusive means that the source gave no clear call. Such entries were picked first, then a sample of the others. For some of these results: Potencies beside an inconclusive call are fits to weak or partial responses and may not hold up. A structure can be active in one record and inactive in another. Activity calls are given as the source filed them. Unless noted, calls come from the whole dose curve; as a rule, active = well fitted curve in the direction sought with a large enough effect in the repeat runs; inconclusive = weak or mixed curves; inactive = no such curve, though single readings can be large; an effect the other way counts as inactive or inconclusive.
# Legend:
# [1] = target: Retinoic acid receptor RXR-alpha (Homo sapiens) (UniProt P19793); experiment: qHTS assay to identify small molecule agonists of the RXR signaling pathway (AID 1159527; calls by dose curve; note: nearly all actives have a fitted effect of over 35% in size; note: potency is the fitted concentration of half-maximal effect; for activation: % is set by controls: 0 for no effect and ±100 for the full control effect); conditions: HEK293T RXRa-UAS-bla, beta-lactamase ratio, 16 h; activation: at 76.8 µM (top of the series) unless noted
# Method in brief: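 GeneBLAzer RXR-alpha-UAS-bla HEK 293T cells in 2% charcoal-stripped FBS medium were exposed to compounds for 16 hr at 37 C in agonist mode. Beta-lactamase reporter read as 460/530 nm FRET ratio after 2 hr substrate loading.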
# [2] = qHTS assay to identify small molecule antagonists of the retinoid acid receptor (RAR) signaling pathway - cell viability counter screen (AID 1159551); conditions: C3RL4 cells viability, ATP luminescence (CellTiter-Glo), 6 h; series mostly up to 92.4 µM; note: nearly all actives have a fitted effect of over 35% in size; note: potency is the fitted concentration of half-maximal effect
# Method in brief: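 C3RL4 RARE-luciferase cells, 1,000/well, incubated overnight, then dosed with compound plus 1 uM retinol (final). After 6 hr at 37 C, viability read by CellTiter-Glo ATP luminescence following 30 min at room temperature.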
# [3] = qHTS assay to identify small molecule antagonists of the retinoic acid receptor (RAR) signaling pathway (AID 1159552; note: potency is the fitted concentration of half-maximal effect; nearly all actives have a fitted effect of over 50% in size); conditions: C3RL4 RARE luciferase reporter, retinol-stimulated, 6 h; series mostly up to 92.4 µM
# Method in brief: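 Retinol signaling pathway inhibitors screened in C3RL4 RARE-luciferase reporter cells seeded overnight at 37 C, then compounds added with 1 uM (final) retinol as pathway substrate. After 6 hr at 37 C, luciferase luminescence read after 30 min at room temperature.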
# [4] = qHTS assay to identify small molecule agonists of the retinoic acid receptor (RAR) signaling pathway (AID 1159553); conditions: C3RL4 RARE luciferase reporter, agonist, 6 h; activation: at 73.3 µM (top of the series) unless noted; note: potency is the fitted concentration of half-maximal effect
# Method in brief: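 C3RL4 RARE-luciferase cells were seeded at 1,000/well and grown overnight at 37 C, then exposed to compounds for 6 hr at 37 C, 5% CO2. Luciferase reagent was added and luminescence was read after 30 min at room temperature.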
# [5] = qHTS assay to identify small molecule antagonists of the estrogen related receptor (ERR) signaling pathway - cell viability counter screen (AID 1224818); conditions: ERR reporter cell line viability counter screen; series mostly up to 46.1 µM;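 note: potency is the fitted concentration of half-maximal effect; viability measured after 17.5 h of compound exposure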
# Method in brief: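 ERR cells, 2,000 per well, compound added after 6 h and incubated 17.5 h at 37 C. Viability read by CellTiter-Fluor fluorescence after a further 30 min at 37 C.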
# [6] = qHTS assay to identify small molecule antagonists of the estrogen related receptor (ERR) signaling pathway (AID 1224819;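 note: luminescence from an ERR-driven luciferase reporter measured with One-Glo reagent; % is set by controls: 0 for no effect and ±100 for the full control effect; nearly all actives have a fitted effect of over 50% in size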); conditions: ERR reporter cell line, luciferase inhibition; series mostly up to 46.1 µM
# Method in brief: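 ERR reporter cell line (NTP) plated at 2,000 cells/well, settled 6 h at 37C/5% CO2, then exposed to LOPAC compounds for 18 h at 37C. One-Glo luciferase luminescence read after 30 min at room temperature.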
# [7] = qHTS assay to identify small molecule agonists of the estrogen related receptor (ERR) signaling pathway (AID 1224820); conditions: ERR reporter cell line, luciferase agonist mode; series mostly up to 46.1 µM; note: potency is the fitted concentration of half-maximal effect
# Method in brief: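 ERR reporter cell line (from NTP), 2,000 cells/well, incubated 6 h before compound addition, then 18 h at 37 C. Luminescence measured 30 min after One-Glo reagent at room temperature.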
smiles,measurement,setting,value
Oc1ccc(/C=C/c2cc(O)cc(O)c2)cc1,Potency,[1],"inconclusive: 27.8 µM [rising, partial curve, poor fit]"
same,Potency,[2],"inconclusive: 26.6 µM [rising, partial curve, poor fit]"
same,Potency,[3],active: 49 µM and active: 43.3 µM
same,Potency,[4],"inconclusive: 6.17 µM [activator, partial curve] and inconclusive: 77 µM [inhibitor, single point] and inconclusive: 11.9 µM [activator]"
same,Potency,[5],inconclusive: 18.8 µM [cytotoxic]
same,Potency,[6],inactive
same,Potency,[7],active: 3.62 µM
CCCC(C)CO (configuration not stated),Potency,[1],"inconclusive: 21.9 µM [activator, full curve]"
same,Potency,[2],inactive
N[C@H](Cc1c[nH]c2ccccc12)C(=O)O,Potency,[1],inactive
same,Potency,[2],inactive
C=CC(=O)OCC(C)OCC(C)OCC(C)OC(=O)C=C (configuration not stated),Potency,[1],"inconclusive: 54.9 µM [rising, single point]"
same,Potency,[2],"inconclusive: 54.5 µM [rising, partial curve]"
same,Potency,[3],active: 61.1 µM
same,Potency,[4],"inconclusive: 21.7 µM [activator, partial curve]"
O=C(O)CCCC[P+](c1ccccc1)(c1ccccc1)c1ccccc1,Potency,[1],inactive
same,Potency,[2],inactive
O=C(c1ccccc1)C(O)c1ccccc1 (configuration not stated),Potency,[1],active: 38.9 µM
same,Potency,[3],"inconclusive: 68 µM [inhibitor, partial curve, poor fit]"
C=CCCCCCC,activation,[1],inconclusive: -29.2%
same,Potency,[2],inactive
same,Potency,[4],"inconclusive: 66.1 µM [inhibitor, single point]"

# Shown with bars between the fields: part of the list above
smiles | measurement | setting | value
Oc1ccc(/C=C/c2cc(O)cc(O)c2)cc1 | Potency | [4] | inconclusive: 6.17 µM [activator, partial curve] and inconclusive: 77 µM [inhibitor, single point] and inconclusive: 11.9 µM [activator]
N[C@H](Cc1c[nH]c2ccccc12)C(=O)O | Potency | [1] | inactive
